Reference: PubChem BioAssay AID504444 (National Center for Advancing Translational Sciences (NCATS), 2011)
About 7,500 (2.1%) of roughly 360,000 compounds were called active. The shares of active, inactive and inconclusive entries below differ from those in the screen. Calls follow the shape of the dose curve; as a rule, active = well fitted inhibition curve with a large enough effect; inconclusive = small, poorly fitted or top-dose-only effect, or effect the other way; inactive = flat fitted curve, though single readings scatter. A potency beside an inconclusive call is a rough fit, not a confirmed value.

Assay: Nrf2 qHTS screen for inhibitors; also: nearly all actives have a fitted effect of over 60% in size
Settings: A549 ARE-Fluc reporter, luciferase luminescence, 18-24 h; activity change, negative = inhibition: at 46 µM (top of the series)
How it was run: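 A549 ARE_Fluc cells (5000/well, 5% FBS OPTI-MEM) pre-incubated 2 h, then treated with compounds 18-24 h at 37C/5% CO2 in concentration-response. CellTiter-Fluor viability read first; BugLite luciferase luminescence after 15 min at room temperature gives Nrf2 activity.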
% is scaled to controls: 0 for no effect and ±100 for the full control effect; potency is read from the fitted curve at half-maximal effect.

Question: With `Cc1ccc(N2CCN(S(=O)(=O)c3ccc(F)cc3)CC2)c(C)c1` as the molecule, how does the Potency read?
Answer: inconclusive: 29.1 µM [falling, single point]

Question: Which Potency does the source give for `Cc1ccc(F)cc1NC(=O)/C=C/c1ccc(S(=O)(=O)N2CCOCC2)cc1` here?
Answer: active: 16.4 µM

Question: With `CC(O)CNc1cc(N)c([N+](=O)[O-])cc1[N+](=O)[O-]` (centres undefined) as the molecule, how does the Potency read?
Answer: inconclusive: 32.6 µM [falling, single point]

Question: For `O/N=C1\CC/C(=N\O)c2nn(-c3ccccc3Cl)nc21`, which Potency is on record?
Answer: inconclusive: 1.64 µM [falling, partial curve]

Question: Which Potency does the source give for `COc1cc(Cn2c(=O)sc3ccccc32)ccc1OCCC(C)C` here?
Answer: inconclusive: 18.4 µM [falling, single point]

Question: With `O=C1C(=Cc2ccco2)CCCC1=Cc1ccco1` as the molecule, how does the “activity change, negative = inhibition” value read?
Answer: inactive: 3.49%

Question: With `CCN1CCC(=NNC(=O)c2ccc(C)c([N+](=O)[O-])c2)CC1` as the molecule, how does the Potency read?
Answer: inconclusive: 18.4 µM [activator, single point]

Question: With `O=Cc1[nH]c2ccccc2c1N(C(=O)CCl)c1ccccc1` as the molecule, how does the Potency read?
Answer: inconclusive: 23.1 µM [falling, partial curve]

Question: With `O=C(N/N=C/c1ccco1)c1cc(C2CC2)[nH]n1` as the molecule, how does the Potency read?
Answer: inconclusive: 6.51 µM [activator, partial curve]

Question: With `O=C(C1CCCN(S(=O)(=O)c2ccc(Br)cc2)C1)N1CCOCC1` (centres undefined) as the molecule, how does the “activity change, negative = inhibition” value read?
Answer: inactive: -7.55%

Question: With `S=C(Nc1ccc(Cl)cc1)Nc1cccc2cnccc12` as the molecule, how does the Potency read?
Answer: inconclusive: 29.1 µM [falling, single point]

Question: With `CC1=Nc2cc(C(=O)NCCCOC(C)C)ccc2Sc2ccc(C)cc21` as the molecule, how does the Potency read?
Answer: active: 23.1 µM

Question: For `COc1ccc(C2CC(c3ccccc3OC(C)=O)=NN2C(C)=O)cc1` (centres undefined), which Potency is on record?
Answer: inconclusive: 32.6 µM [falling, single point]

Question: For `Cc1ccc(OCC(=O)Nc2ccc(S(=O)(=O)N3CCOCC3)cc2)c(Br)c1`, which Potency is on record?
Answer: inconclusive: 29.1 µM [falling, single point]

Question: For `Cc1ccccc1-c1nc(CS(=O)(=O)CC(=O)Nc2cc(Cl)cc(Cl)c2)c(C)o1`, which Potency is on record?
Answer: inconclusive: 29.1 µM [falling, single point]

Question: For `COc1ccc(/C(O)=C2/C(=O)C(=O)N(c3ccccn3)C2c2ccc(F)cc2)cc1` (centres undefined), which Potency is on record?
Answer: inconclusive: 32.6 µM [falling, partial curve, poor fit]

Question: For `COC(=O)c1cc(=O)n(-c2ccc(F)cc2)c(=Nc2ccc(F)cc2)s1`, which Potency is on record?
Answer: active: 20.6 µM

Question: For `CCc1cn(C2CC(O)C(CO)O2)c(=O)[nH]c1=O` (centres undefined), which “activity change, negative = inhibition” value is on record?
Answer: inactive: 1.23%

Question: For `Cc1ccc(-c2n[nH]c(=O)c3ccccc23)cc1N`, which Potency is on record?
Answer: inconclusive: 7.31 µM [falling, partial curve, poor fit]
